Values from PubChem BioAssay AID652243 (Drosophila RNAi Screening Center, 2013)
Screen: 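Fly genes required for human androgen receptor driven transcription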 (primary screen). Cells: Drosophila S2R+ cells. Reagent: long dsRNA against Drosophila genes. Time to read-out: 72 h (48 h, then 24 h hormone). Challenge: synthetic androgen R1881 at 10 nM for 24 h. Read-out: 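Per-well raw luminescence of the androgen-driven firefly reporter and of the Renilla control, two replicates each, without normalisation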. Scale: firefly reporter light: higher = more light from androgen-responsive reporter; Renilla control light: higher = more constitutive control signal (cell number, transfection). Rule for the call: 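Hit when the log firefly-to-Renilla ratio dropped or increased by a fixed fold versus the mean of GFP or LacZ controls across duplicate plates; lowering cut given as 1.5 and as 3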. Calls: active = hit: reporter lowered or raised; inactive = no hit.
The deposit covers about 24,000 reagents; this is a random part of those that have a named target and a result. Of all reagents, 246 (1%) are marked active. 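Plates not normalised; calls are printed but the firefly/Renilla ratio behind them is not deposited; fold cut for lowering reported inconsistently.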 Raw values vary from plate to plate and are shown uncorrected. Names joined by + are all predicted targets of the reagent. No sequences are given here. The record does not give: the amount of reagent.

| gene knocked down | dsRNA | firefly reporter light, replicate 1 | firefly reporter light, replicate 2 | Renilla control light, replicate 1 | Renilla control light, replicate 2 | call |
| --- | --- | --- | --- | --- | --- | --- |
| Adi1 | DRSC10945 | 2.64e5 | 2.47e5 | 3.02e6 | 3.34e6 | inactive |
| Adi1 | DRSC21485 | 9.14e5 | 7.90e5 | 2.26e6 | 2.03e6 | inactive |
| 4E-T | DRSC17201 | 75390 | 51803 | 5.18e5 | 3.45e5 | inactive |
| 4E-T | DRSC17208 | 2.74e5 | 3.78e5 | 2.93e6 | 2.35e6 | inactive |
| CG30273 | DRSC22059 | 3.54e5 | 4.49e5 | 1.55e6 | 1.32e6 | inactive |
| CG30273 | DRSC25520 | 4.30e5 | 8.01e5 | 8.27e5 | 1.06e6 | inactive |
| zda | DRSC06936 | 7.61e5 | 6.11e5 | 6.44e5 | 5.61e5 | inactive |
| zda | DRSC25289 | 6.63e5 | 9.70e5 | 7.79e5 | 8.17e5 | inactive |
| d-cup | DRSC14846 | 1.67e5 | 1.10e5 | 1.66e6 | 1.59e6 | inactive |
| CG4839 | DRSC02783 | 8.20e5 | 9.88e5 | 1.95e6 | 2.03e6 | inactive |
| CG4839 | DRSC02784 | 2.28e5 | 1.72e5 | 1.10e6 | 1.05e6 | inactive |
| CG4839 | DRSC37052 | – | – | – | – | inactive |
| tst | DRSC14212 | 84761 | 68506 | 5.29e5 | 4.92e5 | inactive |
| run | DRSC20584 | 34914 | 33261 | 3.97e5 | 2.77e5 | inactive |
| run | DRSC21515 | 7.86e5 | 6.20e5 | 3.11e6 | 2.16e6 | inactive |
| run | DRSC27251 | 2.77e5 | 2.00e5 | 3.89e5 | 3.31e5 | inactive |
| CG9727 | DRSC12585 | 39121 | 28903 | 3.10e5 | 3.22e5 | inactive |
| CG9727 | DRSC28868 | 3.50e5 | 3.16e5 | 1.20e6 | 9.52e5 | inactive |
| SNRPG | DRSC20207 | 4.72e5 | 3.99e5 | 2.81e6 | 2.61e6 | inactive |
| mRNA-cap | DRSC19789 | 3.38e5 | 3.42e5 | 1.84e6 | 2.20e6 | inactive |
| mRNA-cap | DRSC36813 | – | – | – | – | inactive |
| mRNA-cap | DRSC36814 | – | – | – | – | inactive |
| Brd7-9 | DRSC03017 | 8.73e5 | 1.18e6 | 1.30e6 | 1.28e6 | inactive |
| Brd7-9 | DRSC29592 | 5.10e5 | 6.44e5 | 8.29e5 | 8.29e5 | inactive |
| CG5781 | DRSC02893 | 2.05e5 | 2.24e5 | 1.35e6 | 1.66e6 | inactive |
| Dtwd2 | DRSC12501 | 40925 | 1.02e5 | 1.11e6 | 7.01e5 | inactive |
| puml | DRSC06793 | 2.03e5 | 1.82e5 | 1.62e6 | 1.06e6 | inactive |
| Ppcs | DRSC14127 | 69406 | 66279 | 4.82e5 | 5.20e5 | inactive |
| CG11044 | DRSC06026 | 65928 | 82835 | 1.30e6 | 1.31e6 | inactive |
| CG11044 | DRSC27143 | 2.38e5 | 2.38e5 | 6.17e5 | 3.93e5 | inactive |
| CG12541 | DRSC17839 | 2.90e5 | 3.21e5 | 2.78e6 | 2.24e6 | inactive |
| CG12541 | DRSC28362 | 3.34e5 | 5.43e5 | 1.13e6 | 1.64e6 | inactive |
| CG3792 | DRSC02725 | 2.02e5 | 2.23e5 | 1.98e6 | 1.39e6 | inactive |

A run of entries taken from the entries so far:
| gene knocked down | dsRNA | firefly reporter light, replicate 1 | firefly reporter light, replicate 2 | Renilla control light, replicate 1 | Renilla control light, replicate 2 | call |
| --- | --- | --- | --- | --- | --- | --- |
| mRNA-cap | DRSC19789 | 3.38e5 | 3.42e5 | 1.84e6 | 2.20e6 | inactive |
| mRNA-cap | DRSC36813 | – | – | – | – | inactive |
| mRNA-cap | DRSC36814 | – | – | – | – | inactive |
| Brd7-9 | DRSC03017 | 8.73e5 | 1.18e6 | 1.30e6 | 1.28e6 | inactive |
| Brd7-9 | DRSC29592 | 5.10e5 | 6.44e5 | 8.29e5 | 8.29e5 | inactive |
| CG5781 | DRSC02893 | 2.05e5 | 2.24e5 | 1.35e6 | 1.66e6 | inactive |

Next results:
| gene knocked down | dsRNA | firefly reporter light, replicate 1 | firefly reporter light, replicate 2 | Renilla control light, replicate 1 | Renilla control light, replicate 2 | call |
| --- | --- | --- | --- | --- | --- | --- |
| ndl | DRSC11374 | 1.34e5 | 1.38e5 | 2.02e6 | 2.06e6 | inactive |
| ndl | DRSC26902 | 3.62e5 | 2.68e5 | 6.93e5 | 5.71e5 | inactive |
| CG31321 | DRSC13028 | 83997 | 88655 | 2.17e5 | 2.55e5 | inactive |
| CG31321 | DRSC27335 | 2.20e5 | 2.55e5 | 7.64e5 | 6.85e5 | inactive |
| wtrw | DRSC14241 | 42213 | 19425 | 2.69e5 | 2.52e5 | inactive |
| wtrw | DRSC15278 | 2.98e5 | 2.40e5 | 2.81e6 | 2.45e6 | inactive |
| wtrw | DRSC29977 | 4.92e5 | 3.70e5 | 1.37e6 | 1.29e6 | inactive |
| CG13023 | DRSC09903 | 3.02e5 | 1.63e5 | 2.99e6 | 2.93e6 | inactive |
| Dus3 | DRSC02059 | 1.34e5 | 1.29e5 | 1.15e6 | 1.12e6 | inactive |
| Dus3 | DRSC30102 | 9.01e5 | 8.01e5 | 1.02e6 | 7.68e5 | inactive |
| Tl | DRSC16885 | 85783 | 98556 | 7.86e5 | 9.13e5 | inactive |
| pros | DRSC12856 | 2.64e5 | 2.86e5 | 6.49e5 | 6.15e5 | inactive |
| pros | DRSC17032 | 76363 | 1.01e5 | 8.40e5 | 9.56e5 | inactive |
| pros | DRSC27593 | 3.18e5 | 1.83e5 | 4.16e5 | 7.97e5 | inactive |
| CG34112 | DRSC12235 | 1.29e5 | 1.07e5 | 2.30e6 | 2.60e6 | inactive |
| RpS21 | DRSC00833 | 3.07e5 | 3.34e5 | 2.62e6 | 2.67e6 | inactive |
| RpS21 | DRSC28234 | 2.29e5 | 5.90e5 | 5.47e5 | 1.06e6 | inactive |
| Dad | DRSC16642 | 79504 | 60382 | 4.88e5 | 6.09e5 | inactive |
| Dad | DRSC28345 | 2.42e5 | 5.18e5 | 7.93e5 | 1.19e6 | inactive |
| Sbp2 | DRSC10766 | 7.69e5 | 7.78e5 | 7.17e5 | 9.36e5 | inactive |
| CG15743 | DRSC19709 | 4.10e5 | 4.77e5 | 2.19e6 | 2.87e6 | inactive |
| CG15743 | DRSC26389 | 2.99e5 | 2.48e5 | 5.23e5 | 7.30e5 | inactive |
| CG7611 | DRSC11840 | 7.82e5 | 8.09e5 | 1.59e6 | 1.91e6 | inactive |
| sxe2 | DRSC15692 | 78163 | 1.51e5 | 6.67e5 | 7.51e5 | inactive |
| CG8320 + ATPCL | DRSC07147 | 65584 | 87127 | 2.10e6 | 2.10e6 | active |
| Mat89Ba | DRSC14540 | 26098 | 47323 | 3.43e5 | 3.77e5 | inactive |
| Mat89Ba | DRSC29166 | 3.58e5 | 4.31e5 | 9.18e5 | 1.37e6 | inactive |
| CG6083 | DRSC10580 | 1.72e5 | 1.54e5 | 1.91e6 | 1.69e6 | inactive |
| CG6083 | DRSC24586 | 6.90e5 | 8.81e5 | 6.37e5 | 6.31e5 | inactive |
| CG34290 | DRSC38813 | 1.01e6 | 6.68e5 | 2.19e6 | 1.20e6 | inactive |
| CG6052 | DRSC10574 | 2.02e5 | 1.26e5 | 2.34e6 | 1.23e6 | inactive |
| CG15099 | DRSC06528 | 7.80e5 | 1.08e6 | 1.75e6 | 2.08e6 | inactive |
| snRNA:U1:95Cc + snRNA:U1:95Cb | DRSC13641 | 82362 | 76909 | 1.26e5 | 1.84e5 | inactive |
| CG9522 | DRSC20197 | 4.02e5 | 4.26e5 | 2.78e6 | 3.29e6 | inactive |
| asRNA:CR43468 + Lfg | DRSC06853 | 3.46e5 | 2.78e5 | 1.73e6 | 1.73e6 | inactive |
| Elp4 | DRSC25002 | 7.41e5 | 7.61e5 | 8.83e5 | 7.98e5 | inactive |
| Ice2 | DRSC14268 | 77078 | 54562 | 6.34e5 | 4.84e5 | inactive |
| Adk2 | DRSC09827 | 7.20e5 | 8.74e5 | 1.23e6 | 1.47e6 | inactive |
| Adk2 | DRSC36901 | – | – | – | – | inactive |
| CG8248 | DRSC07124 | 1.08e6 | 1.09e6 | 1.33e6 | 1.48e6 | inactive |
| CG15236 | DRSC23025 | 1.93e5 | 2.70e5 | 1.31e6 | 1.68e6 | inactive |
| CG15236 | DRSC25883 | 3.25e5 | 3.40e5 | 1.56e6 | 1.27e6 | inactive |
| CG15236 | DRSC39022 | 9.22e5 | 7.99e5 | 1.83e6 | 1.50e6 | inactive |
